Data: patent US20220144911A1

Experiments:
[1] = molecular target: RhCMVIL10 (rhesus cytomegalovirus (printed as RhCMV)); experiment: SPR sensorgrams
[2] = molecular target: RhCMVIL10 (rhesus cytomegalovirus (printed as RhCMV)); experiment: SPR

B1: RhIL10R1-FC-SLS (Fc fusion)
chain: AHGTELPSPPSVWFEAEFFHHILHWTPIPNQSESTCYEVALLRYGTGRWNSISNCSQALSYDLTAVTLDLYRSNGYWARVRAVDGSRHSNWTVTNTRFSLDEVTLTVGSVKLEIHNGFILGKIQPPRPKMAPANDTYESIFRHFREYEIAIRKVPGNFTFTHKKVKHENFSLLTSGEVGEFCVQVKPSVTSRTNKGMWSKEECVSLTRQYFTVTNVGSGGGGPSVFLFPPKPKDTLMISRTPEVTCVVVDVSQEDPDVKFNWYVNGAEVHHAQTKPRETQYNSTYRVVSVLTVTHQDWLNGKEYTCKVSNKALPAPIQKTISKDKGQPREPQVYTLPPSREELTKNQVSLTCLVKGFYPSDIVVEWESSGQPENTYKTTPPVLDSDGSYFLYSKLTVDKSRWQQGNVFSCSVMHEALHNHYTQKSLSLSGGCGTPGK
- binding [1]: binds
- binding [2]: binds

No constants are given. Whether binding was seen depends on the method and setting. A result given as binding can be weak or reduced; the word gives no strength. Tags and fused reporters may be left off the sequences shown.
